This note sets out measurements from patent US20190330315A1 (IMAGO PHARMACEUTICALS, published 2019).

In assay [1] the target is T1, Peptide 1: α-synuclein amino acids 100-117 (18 amino acids) … (human).
T1 sequence (peptide, biotinylated (position not stated)): LGKNEEGAPQEGILEDMP
Description: BLI (refers to Example 2).

The target is the same in assay [2]. As to the kind of experiment: BLI (ForteBio Octet Red96), biotinylated peptide on streptavidin biosensors. (BLI is a label-free optical method that tracks binding on a fibre tip over time.)

Results are given in words; binding and its absence hold for the method and conditions named. Some entries that bind do so weakly or less than the wild type. Where no end group is shown, it is not given here.

B1: IGP101 (antibody, V domains shown)
VH: EVQLVESGGGLVQPKGTLKLSCAASGFSFNTYAMNWVRQAPGKSLEWVARTLSKSNNYATYYADSVKDRFTISRDDSQSMLSLQMNNLKTEDTAMYYCVGAFAYWGQGTLVTVSA
VL: DIVMTQAAPSVPVTPGESVSISCRSSKSLLHSNGNTYLYWFLQRPGQSPQLLIYRMSNLASGVPDRFSGSGSGTAFTLRISRVEAEDVGVYYCMQHLEFPFTFGAGTKLELK
notes: Mouse monoclonal antibody from hybridoma ATCC PTA-9197; It was tested as whole mouse IgG, captured on anti-mouse IgG biosensors; The constant regions and isotype are not explicitly stated; a g2b constant region primer is mentioned only in illustrative cloning methods; also called IGP101 antibody; mouse monoclonal antibody IGP101
As for B1, the binding result in assay [1] and in assay [2] was “binds” each time.
